The target of the assay is T1, interferon regulatory factor 3 (IRF3) (mouse (endogenous in L929)), P70671.
T1 chain: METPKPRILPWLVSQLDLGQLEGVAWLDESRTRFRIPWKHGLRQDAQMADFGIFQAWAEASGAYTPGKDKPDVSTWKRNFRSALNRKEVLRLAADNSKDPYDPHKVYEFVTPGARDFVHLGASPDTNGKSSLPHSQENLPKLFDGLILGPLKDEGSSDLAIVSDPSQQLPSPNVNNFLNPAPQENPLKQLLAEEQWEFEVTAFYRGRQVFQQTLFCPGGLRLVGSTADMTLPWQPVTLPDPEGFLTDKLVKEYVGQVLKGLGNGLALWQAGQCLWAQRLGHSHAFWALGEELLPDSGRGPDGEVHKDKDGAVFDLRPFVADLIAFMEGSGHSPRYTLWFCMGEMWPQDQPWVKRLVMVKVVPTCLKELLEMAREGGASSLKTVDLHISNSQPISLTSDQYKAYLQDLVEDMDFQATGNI
Description: native gel or EMSA; IRF3 dimerization assay: L929 cell extracts in native lysis buffer (50 mM Tris-HCl pH 8.0, 150 mM NaCl, 1% NP40), native PAGE without SDS, 0.2% deoxycholate in the cathode buffer, immunoblot for IRF3; cells transfected with miR-23a/b mimics or inhibitors and stimulated with HT-DNA (5 ug/ml) for the indicated times. As to conditions: remark: other sources report otherwise. On the technique in general: In EMSA bound probe runs differently from free probe, usually more slowly.

No constants are given. Whether binding was seen depends on the method and setting. Some results given as binding are weak or reduced against the parent protein; the word gives no strength.

B1: interferon regulatory factor 3 (IRF3), P70671 1-419 (protein)
chain: METPKPRILPWLVSQLDLGQLEGVAWLDESRTRFRIPWKHGLRQDAQMADFGIFQAWAEASGAYTPGKDKPDVSTWKRNFRSALNRKEVLRLAADNSKDPYDPHKVYEFVTPGARDFVHLGASPDTNGKSSLPHSQENLPKLFDGLILGPLKDEGSSDLAIVSDPSQQLPSPNVNNFLNPAPQENPLKQLLAEEQWEFEVTAFYRGRQVFQQTLFCPGGLRLVGSTADMTLPWQPVTLPDPEGFLTDKLVKEYVGQVLKGLGNGLALWQAGQCLWAQRLGHSHAFWALGEELLPDSGRGPDGEVHKDKDGAVFDLRPFVADLIAFMEGSGHSPRYTLWFCMGEMWPQDQPWVKRLVMVKVVPTCLKELLEMAREGGASSLKTVDLHISNSQPISLTSDQYKAYLQDLVEDMDFQATGNI
B1: the binding result is given as “binds”.

Values taken from article PMC8093233.
